PubChem BioAssay AID1508588, Peter MacCallum Cancer Centre – 2020

Purpose: 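Genome-wide search for knock-downs that heighten vemurafenib action in melanoma cells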 (primary screen)
Cells: human WM266.4 melanoma cells (BRAF V600 mutant)
Reagent: siRNA pool against human genes, 40 nM
Time to read-out: 96 h from transfection to read-out
Challenge: vemurafenib 300 nM (about IC25), added 48 h after transfection, for 48 h; comparison arm got DMSO vehicle only
Measurement: 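Ratios to non-targeting siRNA for cell gain, counted as DAPI nuclei after minus before drug and averaged over two replicates, and for absorbance-read medium lactate per cell; both binned into fold-change classes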
Scale: cell gain with vemurafenib: higher = more cell gain than with non-targeting siRNA; lactate per cell with vemurafenib: higher = more lactate made per cell
Rule for the call: 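Enhancement is called by pairing each knock-down's vehicle-arm and drug-arm fold-change classes for viability or glycolysis; which class combinations qualify is not given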
Meaning of the calls: active = enhances vemurafenib effect; inactive = no enhancement seen
This is one part, drawn at random, of about 18,000 reagents. 790 of all reagents (4.4%) count as active. 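Calls rest on a combination of fold-change classes in drug and vehicle arms, not all shown here.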 Entries without a mark were called inactive.

| Target gene | cell gain with vemurafenib | lactate per cell with vemurafenib |
| --- | --- | --- |
| B3GALT5 (beta-1,3-galactosyltransferase 5) | 0.04 | 2.28 |
| RILPL2 (Rab interacting lysosomal protein like 2) | 0.66 | 0.98 |
| NCMAP (non-compact myelin associated protein) | 0.56 | 1.57 |
| OR8J1 (olfactory receptor family 8 subfamily J member 1) | 0.46 | 0.88 |
| GJD2 (gap junction protein delta 2) | 0.99 | 0.66 |
| ZNF595 (zinc finger protein 595) | 0.77 | 0.57 |
| PGS1 (phosphatidylglycerophosphate synthase 1) | 0.9 | 0.8 |
| ADGRL4 (adhesion G protein-coupled receptor L4) | 0.79 | 0.51 |
| C9orf40 (chromosome 9 open reading frame 40) | 0.45 | 1.76 |
| ZNF333 (zinc finger protein 333) | 1.1 | 0.84 |
| DGKQ (diacylglycerol kinase theta) | 0.83 | 1.23 |
| CLHC1 (clathrin heavy chain linker domain containing 1) | 0.29 | 1.22 |

Part of the list above in another layout.
Target gene | cell gain with vemurafenib | lactate per cell with vemurafenib
B3GALT5 (beta-1,3-galactosyltransferase 5) | 0.04 | 2.28
RILPL2 (Rab interacting lysosomal protein like 2) | 0.66 | 0.98
NCMAP (non-compact myelin associated protein) | 0.56 | 1.57
OR8J1 (olfactory receptor family 8 subfamily J member 1) | 0.46 | 0.88
GJD2 (gap junction protein delta 2) | 0.99 | 0.66
ZNF595 (zinc finger protein 595) | 0.77 | 0.57

Next entries follow.
| Target gene | cell gain with vemurafenib | lactate per cell with vemurafenib |
| --- | --- | --- |
| PPP1CC (protein phosphatase 1 catalytic subunit gamma) | 0.71 | 1.12 |
| ZNF267 (zinc finger protein 267) | 0 | 0 |
| KCNC3 (potassium voltage-gated channel subfamily C member 3) | 0.31 | 1.84 |
| PPWD1 (peptidylprolyl isomerase domain and WD repeat containing 1) | 0.77 | 0.87 |
| ARL5A (ARF like GTPase 5A) | 0.92 | 0.53 |
| ELAPOR2 | 0.74 | 0.74 |
| SLC31A1 | 0.48 | 1.3 |
| CHUK | 0.93 | 0.82 |
| XCR1 (X-C motif chemokine receptor 1) | 0.97 | 0.6 |
| RPL8 (ribosomal protein L8) | -0.07 | 2.33 |
| ADGRB2 (adhesion G protein-coupled receptor B2) | 0.29 | 0.71 |
| H3-4 (H3.4 histone, cluster member) | 0.4 | 0.86 |
| CLEC5A (C-type lectin domain containing 5A) | 0.57 | 1.23 |
| IGF2BP3 (insulin like growth factor 2 mRNA binding protein 3) | 0.68 | 0.38 |
| GOLGB1 (golgin B1) | 0.61 | 0.5 |
| SMAP1 (small ArfGAP 1) | 0.52 | 0.9 |
| CD24 (CD24 molecule) | -0.02 | 1.8 |
| SUPT3H (SPT3 homolog, SAGA and STAGA complex component) | 0.53 | 1.1 |
| PSTPIP1 (proline-serine-threonine phosphatase interacting protein 1) | 0.73 | 1.19 |
| GRIA3 (glutamate ionotropic receptor AMPA type subunit 3) | 0.78 | 0.38 |
| ZNF695 (zinc finger protein 695) | 0.53 | 1.02 |
| FAM204A (family with sequence similarity 204 member A) | 0.25 (active) | 0.44 |
